Data reported in US20060148714A1 (priority 1999, published 2006).

Assay: general procedure: Fmoc solid-phase peptide synthesis; polystyrene 1% DVB Fmoc-Rink amide resin, 0.56 mmoles/gram; DIC/HOBt and HBTU/HOBt/DIEA, double coupling
Conditions: whole synthesis, Michrom Ultrafast Microprotein Analyzer, C-8 Zorbax column, 214 nm, peak area, scale of the general procedure generally 0.25 grams of starting resin (0.1-5 grams)

Substance | crude HPLC purity [%]
k-(aminoisobutyric acid)-f-r-(naph-a)-q-a-k-(naph-a) | 79.7
2-biphenylenecarbonyl-k-l-f-r-(naph-a)-q-a-k (KLFRAQAK; 2-biphenylenecarbonyl cap; D-residues; naphthylalanine; derived from human; SITE (1) XMP.699) | 75.5
4-biphenylcarbonyl-k-l-f-r-(biphenyl-a)-q-a-k | 97.2
4-biphenylcarbonyl-k-l-f-r-(naph-a)-q-a-k (KLFRAQAK; 4-biphenylcarbonyl cap; D-residues; naphthylalanine; derived from human; SITE (1)..(8) XMP.664) | 99.0
4-biphenylcarbonyl-k-l-f-k-(biphenyl-a)-q-a-k | 98.9
k-l-f-k-(naph-a)-q-a-k-(naph-a) (KLFKAQAKA; D-residues; naphthylalanine; derived from human; SITE (1)..(9) XMP.776) | 96.4
4-biphenylcarbonyl-k-l-f-k-(naph-a)-q-a-k (KLFKAQAK; 4-biphenylcarbonyl cap; D-residues; naphthylalanine; derived from human; SITE (1)..(8) XMP.767) | 96.0
k-a-f-r-(naph-a)-q-a-k-(naph-a) (KAFRAQAKA; D-residues; naphthylalanine; derived from human; SITE (1)..(9) XMP.760) | 98.0
1-naphthylacetyl-k-l-f-r-(naph-a)-q-a-k (KLFRAQAK; 1-naphthylacetyl cap; D-residues; naphthylalanine; derived from human; SITE (1)..(8) XMP.671) | 91.0
k-a-f-k-(naph-a)-q-a-k-(naph-a)-k-G (KAFKAQAKAKG; D-residues; naphthylalanine; derived from human; SITE (1)..(11) XMP.764) | 90.0
2-naphthylacetyl-k-l-f-r-(naph-a)-q-a-k (KLFRAQAK; 2-naphthylacetyl cap; D-residues; naphthylalanine; derived from human; SITE (1)..(8) XMP.666) | 82.9
